PubChem BioAssay AID602196, INSERM | 2012
Shown is an unselected part of about 23,000 deposited reagents. 455 of all reagents (2%) count as active. 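Active includes both protection and sensitisation; some change values fall well beyond the stated -50 to +50 range.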 Entries without a mark were called inactive. The numbers tell different reagents against one gene apart. Not all columns of the deposit are shown. Not stated in the record: the amount of reagent.

Test: 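Genes whose knock-down alters cisplatin killing of lung cancer cells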
Cells: human A549 lung cancer cells
Reagents: siRNA pair against human genes
Time to read-out: 48 h transfection before cisplatin; time from cisplatin to read-out not stated
Challenge: cisplatin at a dose killing half of control-siRNA cells; exact dose and duration not given
Measurement: 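Cisplatin cell death as a shift from the 50% death seen with control siRNA; siRNAs toxic or growth-blocking alone scored 0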
Direction: two-siRNA summed score (-2 to +2): higher = both siRNAs protect from cisplatin killing; -2 means both sensitise
Rule for the call: 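siRNAs harmful alone (LDH or WST-1) get 0; others get +1 for less and -1 for more cisplatin killing; genes are active when the two siRNAs give the same sign, summing to ±2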
Meaning of the calls: active = both siRNAs shift cisplatin killing the same way; inactive = no consistent shift, or siRNA harmful alone

two-siRNA summed score (-2 to +2), by gene and reagent
NR3C2 (nuclear receptor subfamily 3 group C member 2): #1 -1
LINC02880 (long independently transcribed non-coding RNA 2880): #1 0
LOC392528: #1 0
LOC401089: #1 0
OR7C2 (olfactory receptor family 7 subfamily C member 2): #1 -1
LOC285344: #1 1
KCNH8 (potassium voltage-gated channel subfamily H member 8): #1 1
KIAA1688: #1 0
LOC441076: #1 0
ZER1 (zyg-11 related cell cycle regulator): #1 1
NDUFS8 (NADH:ubiquinone oxidoreductase core subunit S8): #1 0
PCDHB5 (protocadherin beta 5): #1 0
LOC284798: #1 0
ADPRHL1 (ADP-ribosylhydrolase like 1): #1 0; #2 0
GPANK1 (G-patch domain and ankyrin repeats 1): #1 1
BLID (BH3-like motif containing, cell death inducer): #1 0
PRPF38B (pre-mRNA processing factor 38B): #1 0
MAP1LC3BP1: #1 1
GPC2 (glypican 2): #1 -1
SMARCD2 (SWI/SNF related BAF chromatin remodeling complex subunit D2): #1 0
CEBPD (CCAAT enhancer binding protein delta): #1 0
SLC71A3P: #1 0
TMEM131L (transmembrane 131 like): #1 1

Reformatted: entries from further up
ADPRHL1 (ADP-ribosylhydrolase like 1) #1: two-siRNA summed score (-2 to +2) = 0
ADPRHL1 (ADP-ribosylhydrolase like 1) #2: two-siRNA summed score (-2 to +2) = 0
GPANK1 (G-patch domain and ankyrin repeats 1): two-siRNA summed score (-2 to +2) = 1
BLID (BH3-like motif containing, cell death inducer): two-siRNA summed score (-2 to +2) = 0
PRPF38B (pre-mRNA processing factor 38B): two-siRNA summed score (-2 to +2) = 0
MAP1LC3BP1: two-siRNA summed score (-2 to +2) = 1
GPC2 (glypican 2): two-siRNA summed score (-2 to +2) = -1
SMARCD2 (SWI/SNF related BAF chromatin remodeling complex subunit D2): two-siRNA summed score (-2 to +2) = 0
CEBPD (CCAAT enhancer binding protein delta): two-siRNA summed score (-2 to +2) = 0

Further records:
two-siRNA summed score (-2 to +2), by gene and reagent
KRT12 (keratin 12): #1 -1
FAM131C2P (family with sequence similarity 131 member C2, pseudogene): #1 0
TXK (TXK tyrosine kinase): #1 -2 (active)
CYC1 (cytochrome c1): #1 -1
CDK9 (cyclin dependent kinase 9): #1 1
LOC340171: #1 -1
WBP2NL (WBP2 N-terminal like): #1 0
LOC345462: #1 1
REX1BD (required for excision 1-B domain containing): #1 0
TXNDC2 (thioredoxin domain containing 2): #1 0
MTA2 (metastasis associated 1 family member 2): #1 0
ITGAX (integrin subunit alpha X): #1 -1
AHCYL2 (adenosylhomocysteinase like 2): #1 1
GJA1 (gap junction protein alpha 1): #1 1
LINC02897 (long independently transcribed non-coding RNA 2897): #1 0
POLR2G (RNA polymerase II subunit G): #1 -1
CAMK1G (calcium/calmodulin dependent protein kinase IG): #1 0
CAPZA1 (capping actin protein of muscle Z-line subunit alpha 1): #1 0
PATE1 (prostate and testis expressed 1): #1 0
TM7SF3 (transmembrane 7 superfamily member 3): #1 0
LOC440163: #1 1
FDCSP (follicular dendritic cell secreted protein): #1 -1
PHF1 (PHD finger protein 1): #1 -1
FCGRT (Fc gamma receptor and transporter): #1 0
LOC440818: #1 0
EFCAB5 (EF-hand calcium binding domain 5): #1 1
METTL21A (methyltransferase 21A, HSPA lysine): #1 0
ANTKMT (adenine nucleotide translocase lysine methyltransferase): #1 0
HMGCS2 (3-hydroxy-3-methylglutaryl-CoA synthase 2): #1 0
H3C6 (H3 clustered histone 6): #1 0
MYCBPAP (MYCBP associated protein): #1 0
ADORA2B (adenosine A2b receptor): #1 2 (active)
EIF2B5 (eukaryotic translation initiation factor 2B subunit epsilon): #1 0
